The text below walks through data of article PMC7819943, “Rice protein-binding microarrays: a tool to detect cis-acting elements near promoter regions in rice”.

This is one part of the list.

The test addresses T1, OsSMF1 (Oryza sativa, UniProt Q6ZLB0 1-436).
T1 sequence: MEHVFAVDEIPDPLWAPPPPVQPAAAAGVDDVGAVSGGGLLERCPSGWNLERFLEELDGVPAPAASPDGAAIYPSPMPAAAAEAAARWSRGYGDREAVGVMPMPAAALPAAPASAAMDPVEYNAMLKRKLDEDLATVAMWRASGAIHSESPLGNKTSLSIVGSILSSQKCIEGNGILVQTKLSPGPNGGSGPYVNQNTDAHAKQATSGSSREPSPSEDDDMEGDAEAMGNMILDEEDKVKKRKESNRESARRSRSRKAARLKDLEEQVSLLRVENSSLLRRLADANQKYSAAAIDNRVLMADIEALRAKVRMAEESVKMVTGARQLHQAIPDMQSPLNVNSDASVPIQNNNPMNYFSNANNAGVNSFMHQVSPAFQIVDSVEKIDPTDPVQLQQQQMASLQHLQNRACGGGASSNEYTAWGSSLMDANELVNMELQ
The test can be described thus: protein-binding microarray (RPBM); PBS, 2% BSA, 51.3 ng/ul salmon testes DNA, 50 uM zinc acetate, 200 nM TF, 25 C, 1 h; high values mean tight binding. To be noted: protein: recombinant; tags: N-terminal polyhistidine and DsRed monomer fusion (pET32a); chain copies: 2; label: CyDye5-dUTP incorporated in the synthesized complementary strand; 3' TTTTT single-stranded linker to array surface; dsDNA, one strand shown. In a few lines: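 Binding signal is defined as the fluorescence intensity of each feature in arbitrary units, read on an Axon 4000B scanner. Transcription factors with N-terminal polyhistidine and DsRed fusions came from E. coli BL21-CodonPlus and were purified on Ni–NTA. They were incubated at 200 nM for 1 h at 25 °C on a custom Agilent array that had been made double-stranded with Cy5-dUTP, with 50 µM zinc acetate present, and the array was washed.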
In the case of “ACTCAGTCTGTACTACCTGTACGTACGTGGCCGCCGCTAGCGGAGTCACCTAGTGCAG”, the binding signal was 7360 fluorescence intensity (a.u.).

For “ACCAGTCCACTCCACAGTCTCCCACAGCGCCACCACGGTGCGGAGTCACCTAGTGCAG”, the binding signal was 3750 fluorescence intensity (a.u.).

As to “AGAGGGTGATTAAATCATGTCTTGTCATTGCTAATCCAAGCGGAGTCACCTAGTGCAG”, the binding signal is 3760 fluorescence intensity (a.u.).

On to “AAAGTCTCTTAATCCTGTGCAGAATGAGTGTGTCCACAAGCGGAGTCACCTAGTGCAG”, for which the binding signal is 3790 fluorescence intensity (a.u.).

In the case of “ACCTAGATTCTTATATTCTAAGAATCTGTAGTTATATAATCGGAGTCACCTAGTGCAG”, the binding signal is 27200 fluorescence intensity (a.u.).

With “GTAATATATTTCCACGTGCACTCTGTTGCATTGAAATCGCCGGAGTCACCTAGTGCAG”, the binding signal was 5110 fluorescence intensity (a.u.).

“TCAGCCGTTGATGTCATGATCGGACGGCTGAGATCGTCTCCGGAGTCACCTAGTGCAG”: the binding signal is 3290 fluorescence intensity (a.u.).

For the sequence “AACGTTGGTATAGTTGTGTGTCAATGATGTGTTGTGTTTGCGGAGTCACCTAGTGCAG”, the binding signal was 3450 fluorescence intensity (a.u.).

With “CCCCGAGAACCCACCGCGAGGCATTCTCCTCCTCCAATCCCGGAGTCACCTAGTGCAG”, the binding signal was 17600 fluorescence intensity (a.u.).

With “TTGATTATTTGTCTCACTTCCAAGTCAGCATAATGCTTTACGGAGTCACCTAGTGCAG”, the binding signal was 4490 fluorescence intensity (a.u.).

Regarding “ATTCAATGCAACTAGGCATGGCGCTGGCCGCTGGCAGAGTCGGAGTCACCTAGTGCAG”, the binding signal is 3290 fluorescence intensity (a.u.).

Consider “TGCAACGGTAGCATCGCGTAAAAGAAAGAGAAATCTCCCGCGGAGTCACCTAGTGCAG”, for which the binding signal is 3140 fluorescence intensity (a.u.).

Turning to “GATTCGCGTCCTCCGTTTGCTTCGCTTCTTCTTCTAGAACCGGAGTCACCTAGTGCAG”, the binding signal is 3490 fluorescence intensity (a.u.).

In the case of “GACCGGCCGTGAGTCGTTGTAACTCTGATACGCTGTAATACGGAGTCACCTAGTGCAG”, the binding signal was 3350 fluorescence intensity (a.u.).

As for “GCGCCGGGCCGCCACGGCTCAGTGGCGCGCCACGCGCGCGCGGAGTCACCTAGTGCAG”, the binding signal is 4070 fluorescence intensity (a.u.).

As to “TCCCTGGTTACTTGATTAGTCTGTGTGACGTGTAGCGGTTCGGAGTCACCTAGTGCAG”, the binding signal was 6860 fluorescence intensity (a.u.).

For “CAGCCACACGCTCACACGTACTCCCGTGCAGTTGCCAGTTCGGAGTCACCTAGTGCAG”, the binding signal is 4380 fluorescence intensity (a.u.).

Consider “TATCGCTAACGTTATCCTTACATCCACGAGGGAAATGCCGCGGAGTCACCTAGTGCAG”, for which the binding signal is 31300 fluorescence intensity (a.u.).

As for “TAGGGTTTATGTGCGTGTGTTCATAGGGGTGAGTGCGCGTCGGAGTCACCTAGTGCAG”, the binding signal is 4250 fluorescence intensity (a.u.).

With “CTTCGGCCTTAGCTCCAAATCCGATGTAAATTTACCAAATCGGAGTCACCTAGTGCAG”, the binding signal was 61700 fluorescence intensity (a.u.).

Regarding “TGCGTGCCTACGCTATATTGTAGTCACCATGGTTATATTGCGGAGTCACCTAGTGCAG”, the binding signal was 4140 fluorescence intensity (a.u.).

As to “AAAAGACATTAGTCGATCGTACCAGTCTGACTCGAATCGTCGGAGTCACCTAGTGCAG”, the binding signal is 3780 fluorescence intensity (a.u.).

Consider “TACTCAATCGTGCTATAAGCATATGCACTTGGCACGCATCCGGAGTCACCTAGTGCAG”, for which the binding signal is 3240 fluorescence intensity (a.u.).

“GTTAACTATCTCCACAAGCTTATGTAGGCCAGTAACGTGGCGGAGTCACCTAGTGCAG”: the binding signal is 4050 fluorescence intensity (a.u.).

Regarding “TTCATCATCCTCCCTTCATACCATGACACACCATCACCATCGGAGTCACCTAGTGCAG”, the binding signal is 3350 fluorescence intensity (a.u.).

For “AGCCTAATTACGTCATGATTTGACAATGTAATGATACCGTCGGAGTCACCTAGTGCAG”, the binding signal was 8210 fluorescence intensity (a.u.).

For the sequence “ACTTAACGAGGAATGCACAACTTCTCAATTGCCCTGTGACCGGAGTCACCTAGTGCAG”, the binding signal is 21700 fluorescence intensity (a.u.).

On to “TGGTAGGGAAGCAGGTGGAAGGAGGACAGGAAGGCCCAATCGGAGTCACCTAGTGCAG”, for which the binding signal is 34000 fluorescence intensity (a.u.).

Take “ATTGAGATATACGTGGAATATCAGTATATGCCACTCAATTCGGAGTCACCTAGTGCAG”: the binding signal was 3380 fluorescence intensity (a.u.).

Regarding “TTCCTGTGGGCGCTGTTCCTGGTGGCGATGACGGCGACGTCGGAGTCACCTAGTGCAG”, the binding signal was 3310 fluorescence intensity (a.u.).

On to “CTATATTGGATCCGCACCCCGCGTGTCAATGCAAATAGAACGGAGTCACCTAGTGCAG”, for which the binding signal was 3420 fluorescence intensity (a.u.).

In the case of “CATCTCAGGTGAGACCAGGAGCAATCTCTAGTCTGCCACACGGAGTCACCTAGTGCAG”, the binding signal was 4910 fluorescence intensity (a.u.).

Turning to “TACAAACCACCTATGCCTATTTGTCATTGTCACCAATATCCGGAGTCACCTAGTGCAG”, the binding signal is 5220 fluorescence intensity (a.u.).

As to “TCCCCTCGAGGGATGAAAATCCACATCCATATGCCTTATCCGGAGTCACCTAGTGCAG”, the binding signal was 3380 fluorescence intensity (a.u.).

With “TCCGGCCCAGTAGGATGGCCCAAAGAGTACGCTTACCTGGCGGAGTCACCTAGTGCAG”, the binding signal is 3890 fluorescence intensity (a.u.).

For “GATATATTCCCTTGCAACTAGGGGTGAAAATGGGGCGGGTCGGAGTCACCTAGTGCAG”, the binding signal was 3560 fluorescence intensity (a.u.).

“TCGTCGTTCTTGGCGCCACCACATCGCGGGAGATGAGCCACGGAGTCACCTAGTGCAG”: the binding signal was 3240 fluorescence intensity (a.u.).

As to “CTCTTGACCAGCCGAGCGCACCGTCATCAGGCTACATCTCCGGAGTCACCTAGTGCAG”, the binding signal is 5290 fluorescence intensity (a.u.).

“CGTCGCTTGCCCCGACGACCACCGTGTCCGCGCTCGCCTTCGGAGTCACCTAGTGCAG”: the binding signal is 3900 fluorescence intensity (a.u.).

“CTTGCGATGCGTGGTGAGTGGTGACTGTAATGTAATGGAACGGAGTCACCTAGTGCAG”: the binding signal was 3450 fluorescence intensity (a.u.).

Consider “TTTTCTGGGCACATGTTCGTTGTTGTTATCGTCACGTATCCGGAGTCACCTAGTGCAG”, for which the binding signal was 3160 fluorescence intensity (a.u.).

Regarding “TTCCAAACACAGCCTAATTAAGCTAGCTGTGTCATCCGACCGGAGTCACCTAGTGCAG”, the binding signal was 4460 fluorescence intensity (a.u.).
